Data: PMC7181607
No constants are given. Whether binding was seen depends on the method and setting. Binding seen in cells or lysates may run through a third protein. Binding calls can cover weak binding; strength is not graded here. Each block holds one substance with its values, some of them ahead of it.

By UniProt entry, the sequences of proteins in these tests, tags left out. Where a name states a change or a piece, a line headed by the entry shows the natural chain unless it says otherwise.
UniProt P01583: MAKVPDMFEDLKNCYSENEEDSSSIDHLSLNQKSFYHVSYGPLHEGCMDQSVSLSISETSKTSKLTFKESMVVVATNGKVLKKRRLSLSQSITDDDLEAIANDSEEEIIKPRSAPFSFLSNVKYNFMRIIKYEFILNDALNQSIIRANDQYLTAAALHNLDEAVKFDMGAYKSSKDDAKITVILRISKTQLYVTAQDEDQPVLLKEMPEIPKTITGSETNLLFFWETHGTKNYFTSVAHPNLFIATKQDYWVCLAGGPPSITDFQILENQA

Key:
[1] = target: Flag-tagged full-length IL-1α (UniProt P01583); test: co-IP; Mrc-5 cells co-transfected with p53/EGFP and IL-1α/Flag; IP with anti-Flag antibody on protein G-agarose, overnight at 4 °C; p53/EGFP detected with anti-p53 antibody
[2] = target: EGFP-tagged p53 (UniProt P04637); test: co-IP; U2OS cells co-expressing IL-1α/Flag with p53/EGFP or with EGFP; precipitation with GFP-Trap agarose beads (ChromoTek)
[3] = target: EGFP-tagged p53 (UniProt P04637); test: co-IP; A375 cells co-transfected with IL-1α/Flag and p53/EGFP, lysed 24 h after transfection; IP with anti-GFP antibody on protein G-agarose, overnight at 4 °C; IL-1α/Flag detected with anti-Flag antibody
[4] = target: endogenous p53 (human (endogenous in U2OS, A375, HeLa)) (UniProt P04637); test: co-IP; endogenous proteins, untreated U2OS cells; IP with anti-p53 antibody CM-1; IL-1α detected by western blotting
[5] = target: endogenous p53 (human (endogenous in U2OS, A375, HeLa)) (UniProt P04637); test: co-IP; endogenous proteins, U2OS (and A375) cells treated with etoposide (10 µg/ml, 2 hours); IP with anti-p53 antibody CM-1; IL-1α detected by western blotting
[6] = target: endogenous p53 (human (endogenous in U2OS, A375, HeLa)) (UniProt P04637); test: proximity ligation; Duolink in situ PLA of endogenous proteins in fixed A375, HeLa and U2OS cells; mouse anti-IL-1α (I7409) and rabbit anti-p53 (CM-1) antibodies; cells untreated or treated with 10 µg/ml etoposide for two hours
[7] = target: endogenous p53 (human (endogenous in U2OS, A375, HeLa)) (UniProt P04637); test: proximity ligation; Duolink in situ PLA in fixed U2OS cells transfected with IL-1α/EGFP or IL-1αNTP/EGFP; anti-GFP and anti-p53 (CM-1) antibodies; IL-1α/EGFP cells treated with 20 μM roscovitine for 24 hours

binding [1]: binds
Substance: EGFP-tagged p53 (from UniProt P04637 1-393)

binding [2]: binds
binding [3]: binds
Substance: Flag-tagged full-length IL-1α (from UniProt P01583)

binding [4]: binds weakly
binding [5]: binds
binding [6]: binds
Substance: endogenous IL-1α (from UniProt P01583)

binding [7]: binds
Substance: full-length IL-1α/EGFP fusion protein (from UniProt P01583)
